# Assay results reported in PubChem BioAssay AID2685 (National Center for Advancing Translational Sciences (NCATS), 2010).
# The other results are listed elsewhere or left out. Shown are side measurements of this screen, not its main read-out; they come without a call. Compounds called inactive in the main read-out are mostly missing here. The note in brackets gives the kind of curve behind each potency; many fits are weak.
# Assay: qHTS Assay for Lipid Storage Modulators in Drosophila S3 Cells;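 for cell number change: cells counted by Cell Tracker Red CMTPX staining in the red channel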
# Conditions: BODIPY lipid droplet fluorescence, 18-24 h; for cell number change: measured here: cell count max response, cells fed with added oleic acid
# Method in brief: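 Drosophila S3 cells got compounds at several concentrations plus oleic acid (400 uM solution). Laser-scanning cytometry with 488 nm excitation read lipid droplets at 500-530 nm and cells at 575-640 nm. Percent activity was relative to 20 uM Triacsin C.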
# [1] = measured here: lipid fluorescence (Fed channel) AC50, cells fed with added oleic acid
# [2] = measured here: cell number channel AC50, cells fed with added oleic acid
SMILES,cell number change,AC50 [1],AC50 [2]
COC(=O)[C@]1(C)CCC[C@@]2(C)C3CC[C@@]4(C)C[C@]3(CCC21)CC(=O)N4Cc1ccc(OC)cc1 (stereo partly drawn),3.82%,"3.66 µM [falling, single point]",
CCc1ccc(C(=O)CSC2=C(C#N)C(c3ccco3)C(C(C)=O)=C(C)N2)cc1 (stereo not drawn),-54.3%,,"29.1 µM [falling, single point]"
Cc1ccc(N2C(=O)C(NC(=O)c3ccccc3F)(C(F)(F)F)C3=C2CC(C)(C)CC3=O)cc1 (stereo not drawn),-14.2%,"16.4 µM [falling, single point]",
Cc1cc(NC(=O)COC(=O)C2CCN(S(=O)(=O)c3ccc(Cl)cc3)CC2)no1,35.6%,,"0.291 µM [rising, full curve, poor fit]"
Cc1ccc2cc(CN(Cc3nnnn3C3CCCCC3)CC3CCCO3)c(=O)[nH]c2c1 (stereo not drawn),-0.628%,,
Nc1nc(SCC(=O)c2c(N)n(C3CC3)c(=O)[nH]c2=O)n[nH]1,-19.5%,,
COc1ccccc1OCC(=O)NN1Cc2ccccc2C1=N,-28.3%,"23.1 µM [falling, partial curve]","0.82 µM [falling, full curve]"
O=C(c1ccccc1Oc1nnnn1-c1ccccc1)N1CCOCC1,-34%,"1.03 µM [falling, full curve]","0.092 µM [falling, full curve, poor fit]"
Cc1ccc(C(=O)CCNc2ccc(F)c(Cl)c2)o1,-6.77%,"3.66 µM [rising, full curve, poor fit]",
CCCCNC(=O)NC1CCCC1,4.01%,,"6.51 µM [falling, single point]"
CCC(=O)N(CC)c1nc(-c2cc(OC)ccc2OC)cs1,0.707%,"25.9 µM [rising, single point]",
CC(C)(C)Nc1nc(-c2ccc3c(c2)CCN3C(=O)C2CC2)cs1,-19.2%,,"0.184 µM [rising, full curve, poor fit]"
COCCN=C1Sc2nc3c(C)cccc3cc2CN1Cc1ccco1,-0.753%,,
COc1ccc(S(=O)(=O)Oc2ccccc2C(N)=O)cc1,-15.6%,,
O=C(NCc1ccc(F)cc1)C1CCC(CNS(=O)(=O)c2cccs2)CC1 (stereo not drawn),2.25%,,
COc1ccc(NC(=O)COC(=O)COc2cccc(Br)c2)cc1OC,,"11.6 µM [falling, partial curve]",
O=C(CCS(=O)(=O)c1ccccc1)Nc1nc2c(s1)COc1ccccc1-2,,"0.291 µM [rising, partial curve]",
CC1(c2ccc(OC(F)F)cc2)NC(=O)N(/N=C/c2c(O)ccc3ccccc23)C1=O (stereo not drawn),-78.1%,,"29.1 µM [falling, single point]"
Cc1cccc(OCC(=O)Nc2ccc(S(=O)(=O)Nc3ccccn3)cc2)c1,,"0.366 µM [rising, partial curve, poor fit]",
CC(=O)N1CCN(c2ccc(NCc3cccc(C)c3)cc2)CC1,-6.75%,"4.11 µM [falling, single point]",
CC1=C(C(=O)OCc2ccccc2)C(c2ccccc2Br)NC(=O)N1 (stereo not drawn),5.41%,,
O=C(NNC1CC(=O)N(c2cccc(Cl)c2)C1=O)c1cccnc1 (stereo not drawn),-33.3%,"6.51 µM [falling, single point]","29.1 µM [falling, single point]"

# A second format for part of the listing above.
SMILES	cell number change	AC50 [1]	AC50 [2]
COC(=O)[C@]1(C)CCC[C@@]2(C)C3CC[C@@]4(C)C[C@]3(CCC21)CC(=O)N4Cc1ccc(OC)cc1 (stereo partly drawn)	3.82%	3.66 µM [falling, single point]	
CCC(=O)N(CC)c1nc(-c2cc(OC)ccc2OC)cs1	0.707%	25.9 µM [rising, single point]	

# (cont.)

SMILES,cell number change,AC50 [1],AC50 [2]
C/C=C/C(=O)OCC(=O)Nc1ccc(OC)c(OC)c1,44.2%,"29.1 µM [rising, single point]","0.146 µM [rising, full curve, poor fit]"
O=C(COC(=O)c1cc([N+](=O)[O-])ccc1N1CCOCC1)Nc1ncc(Cl)cc1Cl,-1.2%,,
COc1cccc(/C=N/NC(=O)c2cccc3ccccc23)c1,-10.9%,,
CC(CCc1ccccc1)NC(=O)CC(C)c1ccccc1 (stereo not drawn),-16.8%,"3.26 µM [rising, full curve]",
CCCCCCC[N+](CC)(CC)CCCCc1ccc(Cl)cc1,-45.7%,"3.26 µM [falling, partial curve]","29.1 µM [falling, single point]"
CC(C)C(NS(=O)(=O)c1cccc2nsnc12)C(=O)NC1CCCCC1C (stereo not drawn),,"6.51 µM [rising, single point]",
Cc1cccc(S(=O)(=O)NC(Cc2c[nH]c3ccccc23)C(=O)O)c1 (stereo not drawn),,"0.116 µM [falling, full curve, poor fit]",
CCOC(=O)c1c(NC(=O)CN2CCOCC2)sc2c1CC(C)(C)OC2,-17.1%,,
CC(=O)NC(=S)c1c(N)n(Cc2ccccc2)c(=O)n(C)c1=O,34%,"9.2 µM [rising, partial curve]","6.51 µM [rising, full curve, poor fit]"
CCOC(=O)CSc1nnc(COc2cccc(C)c2)o1,-1.11%,"0.517 µM [rising, full curve, poor fit]",
Cn1nccc1C(=O)Nc1ccc(Cl)cc1,36.7%,,"32.6 µM [rising, single point]"
CN1CCN(C(=S)NC(=O)c2ccc(Br)cc2)CC1,-14.3%,"29.1 µM [falling, single point]",
CC(C)CN1CCCC(N2CCN(c3cccc(Cl)c3)CC2)C1 (stereo not drawn),8.92%,"20.6 µM [rising, single point]",
CC(OCC(O)CN(C)CCOc1ccccc1)c1ccc(Cl)cc1 (stereo not drawn),-9.18%,,
CC(C)(C)n1ncc2c(=O)n(CC(=O)N3CCCCCC3)cnc21,21.2%,"1.84 µM [rising, full curve]",
CCOC(=O)/C(C#N)=C/C1=C(N2CCCC2)CC(C)(C)OC1,38.6%,"16.4 µM [rising, partial curve]","5.8 µM [rising, full curve]"
Cn1nc(OC(=O)Nc2ccc(Cl)cc2)cc1C(F)(F)F,19%,"8.2 µM [falling, partial curve]",
COc1ccc(OC)c(CNC(=O)Cc2c(C(=O)O)[nH]c3ccccc23)c1,0.8%,"1.03 µM [falling, full curve]",
COC(=O)c1ccc(COc2ccc(/C=C/C(=O)c3ccc(OC)c(CSCC(=O)O)c3)cc2OC)cc1,-34.5%,,"0.164 µM [falling, single point]"
Cc1ccc(-n2nc(C)c(=O)c(-c3ccccc3)c2NC(=O)c2cccs2)cc1,,"2.31 µM [falling, partial curve]","0.184 µM [falling, full curve, poor fit]"
CCCCC(C)n1[nH]c(=O)c2c(C)cc(C)nc21 (stereo not drawn),-2.88%,,
CCCCCC(=O)NC(=S)Nc1ccc(N2CCOCC2)cc1,31.3%,,"29.1 µM [rising, single point]"

SMILES,cell number change,AC50 [1],AC50 [2]
CCSc1ccc(-c2nn(-c3ccccc3)cc2/C=C(/C#N)C(=O)NCCCOC)cc1,-54.7%,"7.31 µM [falling, partial curve]","8.2 µM [falling, partial curve]"
CCS(=O)(=O)/N=C(\N)c1ccccc1,0.408%,,
Cc1nc2ccccc2n1CC(=O)N/N=C\c1ccccn1,-50.8%,,
C=CCN(C(=O)c1cc(C)cc(C)c1)C1(C(=O)Nc2ccccc2)CCN(C(C)C)CC1,-10.5%,"0.13 µM [falling, full curve, poor fit]",
CCc1cccc(NC(=O)c2cnn(-c3ccccc3)c2C)c1,-31.7%,"29.1 µM [falling, single point]","25.9 µM [falling, single point]"
COc1ccccc1C(=O)N(Cc1ccc(C)o1)C1CCS(=O)(=O)C1 (stereo not drawn),13.9%,"2.06 µM [rising, partial curve, poor fit]",
C=C(C)c1cccc(C(C)(C)NC(=O)Nc2ncccn2)c1,,"6.51 µM [falling, single point]",
Cc1nc(SCC(=O)Nc2ccc(N3CCOCC3)cc2)nc(C)c1C,-8.37%,,
COc1ccccc1C(=O)N1CCN(CCNC(=O)C(=O)Nc2ccc(Br)c(C)c2)CC1,20.8%,"6.51 µM [rising, single point]",
CCCN(CC(=O)Nc1cc(Cl)cc(Cl)c1)CC(=O)Nc1ccc(F)c(F)c1F,-14.9%,"16.4 µM [falling, partial curve]",
O=C(O)C1CC(=O)N(CCOc2ccccc2)C1 (stereo not drawn),-23.2%,"1.46 µM [falling, full curve]",
COc1ccccc1N1CCN(C(=O)/C=C/c2c(Cl)nc3ccccn23)CC1,33.6%,,"3.66 µM [rising, full curve]"
CC(=O)c1c(C)nn(CCC(=O)O)c1C,9.62%,"18.4 µM [falling, partial curve]","0.092 µM [falling, full curve, poor fit]"
Cn1c(=O)c(C(=O)Nc2ncccn2)c(O)c2ccccc21,-9.38%,,
COC(=O)c1ccccc1NC(=O)c1ccccc1OC,-16.7%,"11.6 µM [rising, single point]",
C1=Cc2ccccc2Nc2ccccc21,-42.8%,"18.4 µM [falling, single point]","18.4 µM [falling, single point]"
CNCCCC1c2ccccc2C=Cc2ccccc21,-13.3%,"2.91 µM [falling, partial curve, poor fit]",
O=C(CNc1ccc(C(F)(F)F)cc1[N+](=O)[O-])OCC(=O)c1ccccc1,50.4%,,"0.92 µM [rising, full curve]"
O=C1C=C(c2cc(Cl)cc(Cl)c2)C[C@@H](c2ccc(F)cc2)C1,-20.6%,"0.116 µM [falling, single point]",
O=C(NC(=S)Nc1ccccc1Br)c1ccc2c(c1)OCO2,6.04%,"1.84 µM [rising, partial curve]",
